At least one peptide structure holds a part that was inferred or is arguable (an end, a ring closure or a residue). Some compounds share one wording; it may come from a single statement. Numbered stars: 1 amine (or outer) side, 2 acyl side, 3 side chain; on linkers, the order of the positions; unused ones are H or OH. Bridge positions count the residues as written; N and C are the ends. Peptide text beside a SMILES is read from it. I, II: the chains in the order shown. OSi(nPr)2O = CCC[Si](CCC)(O[*:1])O[*:2]; X1 = C[Si](C)(O[*:1])O[*:2]
How the values were obtained:
Adenokarzinome = assay: Effect on adenocarcinomas
Medulloblastome = assay: Effect on medulloblastomas
Plattenepithelkarzinome = assay: Effect on squamous cell carcinomas

| SMILES | Wirkung auf Adenokarzinome (Adenokarzinome) | Wirkung gegen Plattenepithelkarzinome (Plattenepithelkarzinome) | other results |
| --- | --- | --- | --- |
| C[C@H](N)C(=O)N[C@@H](C)C(=O)N[C@@H](C)C(=O)N[C@@H](C)C(=O)N[C@@H](C)C(=O)N[C@@H](C)C(=O)N[C@@H](C)C(=O)N[C@@H](C)C(=O)N[C@@H](C)C(=O)N[C@@H](C)C(=O)O[Si](C)(C)OC(=O)[C@H](C)NC(=O)[C@H](C)NC(=O)[C@H](C)NC(=O)[C@H](C)NC(=O)[C@H](C)NC(=O)[C@H](C)NC(=O)[C@H](C)NC(=O)[C@H](C)NC(=O)[C@H](C)NC(=O)[C@H](C)N [Dimethyl bis(decaalanyl)siylester] | zeigen eine Wirkung |  |  |
| C[Si](C)(OC(=O)CNC(=O)CNC(=O)CNC(=O)CNC(=O)CNC(=O)CNC(=O)CNC(=O)CNC(=O)CNC(=O)CN)OC(=O)CNC(=O)CNC(=O)CNC(=O)CNC(=O)CNC(=O)CNC(=O)CNC(=O)CNC(=O)CNC(=O)CN [Dimethyl bis(decaglycyl)silylester] |  |  | Wirkung gegen Medulloblastome (Medulloblastome): zeigen eine Wirkung |
| C[Si](C)(OC(=O)CNC(=O)CNC(=O)CNC(=O)CNC(=O)CNC(=O)CNC(=O)CN)OC(=O)CNC(=O)CNC(=O)CNC(=O)CNC(=O)CNC(=O)CNC(=O)CN [Dimethyl bis(heptaglycyl)silylester] (I: H-GGGGGGG / II: H-GGGGGGG; linker I:C-II:C via X1) |  |  | Wirkung gegen Medulloblastome (Medulloblastome): zeigen eine Wirkung |
| CC(C)[C@H](N)C(=O)N[C@H](C(=O)N[C@H](C(=O)N[C@H](C(=O)N[C@H](C(=O)N[C@H](C(=O)N[C@H](C(=O)O[Si](C)(C)OC(=O)[C@@H](NC(=O)[C@@H](NC(=O)[C@@H](NC(=O)[C@@H](NC(=O)[C@@H](NC(=O)[C@@H](NC(=O)[C@@H](N)C(C)C)C(C)C)C(C)C)C(C)C)C(C)C)C(C)C)C(C)C)C(C)C)C(C)C)C(C)C)C(C)C)C(C)C)C(C)C [Dimethyl bis(heptavalyl)silylester] (I: H-VVVVVVV / II: H-VVVVVVV; linker I:C-II:C via X1) | zeigen eine Wirkung |  |  |
| CC(C)[C@H](N)C(=O)N[C@H](C(=O)N[C@H](C(=O)N[C@H](C(=O)N[C@H](C(=O)N[C@H](C(=O)O[Si](C)(C)OC(=O)[C@@H](NC(=O)[C@@H](NC(=O)[C@@H](NC(=O)[C@@H](NC(=O)[C@@H](NC(=O)[C@@H](N)C(C)C)C(C)C)C(C)C)C(C)C)C(C)C)C(C)C)C(C)C)C(C)C)C(C)C)C(C)C)C(C)C [Dimethyl bis(hexavalyl)silylester] (I: H-VVVVVV / II: H-VVVVVV; linker I:C-II:C via X1) | zeigen eine Wirkung |  |  |
| C[C@H](N)C(=O)N[C@@H](C)C(=O)N[C@@H](C)C(=O)N[C@@H](C)C(=O)N[C@@H](C)C(=O)N[C@@H](C)C(=O)N[C@@H](C)C(=O)N[C@@H](C)C(=O)N[C@@H](C)C(=O)O[Si](C)(C)OC(=O)[C@H](C)NC(=O)[C@H](C)NC(=O)[C@H](C)NC(=O)[C@H](C)NC(=O)[C@H](C)NC(=O)[C@H](C)NC(=O)[C@H](C)NC(=O)[C@H](C)NC(=O)[C@H](C)N [Dimethyl bis(nonaalanyl)silylester] (I: H-AAAAAAAAA / II: H-AAAAAAAAA; linker I:C-II:C via X1) | zeigen eine Wirkung |  |  |
| CCC[Si](CCC)(OC(=O)[C@H](C)NC(=O)[C@H](C)NC(=O)[C@H](C)NC(=O)[C@H](C)NC(=O)[C@H](C)NC(=O)[C@H](C)NC(=O)[C@H](C)NC(=O)[C@H](C)NC(=O)[C@H](C)NC(=O)[C@H](C)N)OC(=O)[C@H](C)NC(=O)[C@H](C)NC(=O)[C@H](C)NC(=O)[C@H](C)NC(=O)[C@H](C)NC(=O)[C@H](C)NC(=O)[C@H](C)NC(=O)[C@H](C)NC(=O)[C@H](C)NC(=O)[C@H](C)N [Dipropyl bis(decaalanyl)silylester] | zeigen eine Wirkung |  |  |
| CCC[Si](CCC)(OC(=O)CNC(=O)CNC(=O)CNC(=O)CNC(=O)CNC(=O)CNC(=O)CNC(=O)CNC(=O)CNC(=O)CN)OC(=O)CNC(=O)CNC(=O)CNC(=O)CNC(=O)CNC(=O)CNC(=O)CNC(=O)CNC(=O)CNC(=O)CN [Dipropyl bis(decaglycyl)silylester] |  | zeigen eine Wirkung |  |
| CCC[Si](CCC)(OC(=O)[C@H](C)NC(=O)[C@H](C)NC(=O)[C@H](C)NC(=O)[C@H](C)NC(=O)[C@H](C)NC(=O)[C@H](C)NC(=O)[C@H](C)N)OC(=O)[C@H](C)NC(=O)[C@H](C)NC(=O)[C@H](C)NC(=O)[C@H](C)NC(=O)[C@H](C)NC(=O)[C@H](C)NC(=O)[C@H](C)N [Dipropyl bis(heptaalanyl)silylester] (I: H-AAAAAAA / II: H-AAAAAAA; linker I:C-II:C via OSi(nPr)2O) |  | zeigen eine Wirkung |  |
| CCC[Si](CCC)(OC(=O)CNC(=O)CNC(=O)CNC(=O)CNC(=O)CNC(=O)CNC(=O)CN)OC(=O)CNC(=O)CNC(=O)CNC(=O)CNC(=O)CNC(=O)CNC(=O)CN [Dipropyl bis(heptaglycyl)silylester] (I: H-GGGGGGG / II: H-GGGGGGG; linker I:C-II:C via OSi(nPr)2O) |  | zeigen eine Wirkung |  |
| CCC[Si](CCC)(OC(=O)[C@H](C)NC(=O)[C@H](C)NC(=O)[C@H](C)NC(=O)[C@H](C)NC(=O)[C@H](C)NC(=O)[C@H](C)N)OC(=O)[C@H](C)NC(=O)[C@H](C)NC(=O)[C@H](C)NC(=O)[C@H](C)NC(=O)[C@H](C)NC(=O)[C@H](C)N [Dipropyl bis(hexaalanyl)silylester] |  | zeigen eine Wirkung |  |
| CCC[Si](CCC)(OC(=O)CNC(=O)CNC(=O)CNC(=O)CNC(=O)CNC(=O)CN)OC(=O)CNC(=O)CNC(=O)CNC(=O)CNC(=O)CNC(=O)CN [Dipropyl bis(hexaglycyl)silylester] |  | zeigen eine Wirkung |  |
| CCC[Si](CCC)(OC(=O)[C@H](C)NC(=O)[C@H](C)NC(=O)[C@H](C)NC(=O)[C@H](C)NC(=O)[C@H](C)NC(=O)[C@H](C)NC(=O)[C@H](C)NC(=O)[C@H](C)NC(=O)[C@H](C)N)OC(=O)[C@H](C)NC(=O)[C@H](C)NC(=O)[C@H](C)NC(=O)[C@H](C)NC(=O)[C@H](C)NC(=O)[C@H](C)NC(=O)[C@H](C)NC(=O)[C@H](C)NC(=O)[C@H](C)N [Dipropyl bis(nonaalanyl)silylester] (I: H-AAAAAAAAA / II: H-AAAAAAAAA; linker I:C-II:C via OSi(nPr)2O) |  | zeigen eine Wirkung |  |
| CCC[Si](CCC)(OC(=O)CNC(=O)CNC(=O)CNC(=O)CNC(=O)CNC(=O)CNC(=O)CNC(=O)CNC(=O)CN)OC(=O)CNC(=O)CNC(=O)CNC(=O)CNC(=O)CNC(=O)CNC(=O)CNC(=O)CNC(=O)CN [Dipropyl bis(nonaglycyl)silylester] |  | zeigen eine Wirkung |  |
| CCC[Si](CCC)(OC(=O)[C@H](C)NC(=O)[C@H](C)NC(=O)[C@H](C)NC(=O)[C@H](C)NC(=O)[C@H](C)NC(=O)[C@H](C)NC(=O)[C@H](C)NC(=O)[C@H](C)N)OC(=O)[C@H](C)NC(=O)[C@H](C)NC(=O)[C@H](C)NC(=O)[C@H](C)NC(=O)[C@H](C)NC(=O)[C@H](C)NC(=O)[C@H](C)NC(=O)[C@H](C)N [Dipropyl bis(octaalanyl)silylester] (I: H-AAAAAAAA / II: H-AAAAAAAA; linker I:C-II:C via OSi(nPr)2O) |  | zeigen eine Wirkung |  |
| CCC[Si](CCC)(OC(=O)CNC(=O)CNC(=O)CNC(=O)CNC(=O)CNC(=O)CNC(=O)CNC(=O)CN)OC(=O)CNC(=O)CNC(=O)CNC(=O)CNC(=O)CNC(=O)CNC(=O)CNC(=O)CN [Dipropyl bis(octaglycyl)silylester] (I: H-GGGGGGGG / II: H-GGGGGGGG; linker I:C-II:C via OSi(nPr)2O) |  | zeigen eine Wirkung |  |

— patent EP1948196B1, “USE OF TETRAORGANOSILICON COMPOUNDS” (Salama, Zoser B., priority 2005, dated 2007)
